Measurements reported in PubChem BioAssay AID1259254 (NCATS, 2017).
The deposit covers about 59,000 reagents; this is a random part of them. About 1,550 of all reagents (2.6%) were called active. 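G2 share is only a proxy for re-replication; each gene was hit by three separate siRNAs, and active genes were retested.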 Further read-outs or replicates are left out here. Not stated in the record: the amount of reagent.

- Test: 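Genome-wide screen for genes that prevent DNA re-replication in cancer cells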 (primary screen)
- Cell system: human HCT116 colorectal cancer cells
- Knock-down reagent: single siRNA against human genes
- Duration: 3 days
- Measured: 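Nuclei stained with Hoechst and imaged; cell-cycle phase assigned by DNA content; G2 share scaled per plate, non-targeting siRNA 0%, GMNN siRNA 100%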
- Reading the numbers: G2 robust z-score: higher = more G2 cells, more excess DNA replication
- Active means: 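An siRNA counts as active if its G2 robust z-score lies at least 5 MADs above the screen median; here such calls match roughly 38% of GMNN control or more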

{"gene knocked down": "MFSD12 (GeneID 126321)", "PubChem SID": "SID160732420", "G2 robust z-score": 0.29, "call": "inactive"}
{"gene knocked down": "MFSD12 (GeneID 126321)", "PubChem SID": "SID160756458", "G2 robust z-score": 3.8, "call": "inactive"}
{"gene knocked down": "MFSD12 (GeneID 126321)", "PubChem SID": "SID160756459", "G2 robust z-score": 1.92, "call": "inactive"}
{"gene knocked down": "TFEB (GeneID 7942)", "PubChem SID": "SID160719504", "G2 robust z-score": 3.86, "call": "inactive"}
{"gene knocked down": "TFEB (GeneID 7942)", "PubChem SID": "SID160719505", "G2 robust z-score": 2.78, "call": "inactive"}
{"gene knocked down": "TFEB (GeneID 7942)", "PubChem SID": "SID160731917", "G2 robust z-score": 6.34, "call": "active"}
{"gene knocked down": "HOXA1 (GeneID 3198)", "PubChem SID": "SID160775156", "G2 robust z-score": 3.47, "call": "inactive"}
{"gene knocked down": "HOXA1 (GeneID 3198)", "PubChem SID": "SID160775157", "G2 robust z-score": 0.18, "call": "inactive"}
{"gene knocked down": "HOXA1 (GeneID 3198)", "PubChem SID": "SID160775158", "G2 robust z-score": 2.16, "call": "inactive"}

Continued, starting with the last 2 of the part before.
{"gene knocked down": "HOXA1 (GeneID 3198)", "PubChem SID": "SID160775157", "G2 robust z-score": 0.18, "call": "inactive"}
{"gene knocked down": "HOXA1 (GeneID 3198)", "PubChem SID": "SID160775158", "G2 robust z-score": 2.16, "call": "inactive"}
{"gene knocked down": "TMSB4Y (GeneID 9087)", "PubChem SID": "SID160721440", "G2 robust z-score": 2.71, "call": "inactive"}
{"gene knocked down": "TMSB4Y (GeneID 9087)", "PubChem SID": "SID160721441", "G2 robust z-score": -0.789, "call": "inactive"}
{"gene knocked down": "TMSB4Y (GeneID 9087)", "PubChem SID": "SID160721442", "G2 robust z-score": -0.519, "call": "inactive"}
{"gene knocked down": "NAT8 (GeneID 9027)", "PubChem SID": "SID160775049", "G2 robust z-score": 1.54, "call": "inactive"}
{"gene knocked down": "NAT8 (GeneID 9027)", "PubChem SID": "SID160775060", "G2 robust z-score": 2.63, "call": "inactive"}
{"gene knocked down": "NAT8 (GeneID 9027)", "PubChem SID": "SID160775071", "G2 robust z-score": -0.779, "call": "inactive"}
{"gene knocked down": "TUBB4A (GeneID 10382)", "PubChem SID": "SID160728289", "G2 robust z-score": -0.48, "call": "inactive"}
{"gene knocked down": "TUBB4A (GeneID 10382)", "PubChem SID": "SID160728290", "G2 robust z-score": 0.7, "call": "inactive"}
{"gene knocked down": "TUBB4A (GeneID 10382)", "PubChem SID": "SID160728293", "G2 robust z-score": -0.704, "call": "inactive"}
